In patent US12681015B2, “Methods for predicting patient response to DMARDs” (Queen Mary University of London, priority 2019, dated 2026):

Test: Plasma lipid mediator profiling in RA patients 6 months after DMARD treatment initiation
Assay type: in vivo, human
Conditions: 6 months after treatment initiation

| Compound | Peripheral blood lipid mediator profile after 6 months of DMARD treatment, DMARD Non-Responders, Mean ± SEM | Peripheral blood lipid mediator profile after 6 months of DMARD treatment, DMARD Responders, Mean ± SEM |
| --- | --- | --- |
| CC/C=C\C/C=C\C[C@H](O)/C=C/C=C\C/C=C\C=C\[C@@H](O)CCC(=O)O [4S,14S-diHDHA] | 1.51 ± 0.37 | 3.89 ± 3.28 |
| CCCCC/C=C\C[C@H](O)/C=C/C=C\C=C\[C@@H](O)CCCC(=O)O [5S,12S-diHETE] | 0.85 ± 0.33 | 1.57 ± 0.69 |
| CCCCC[C@H](O)/C=C/C=C\C/C=C\C=C\[C@@H](O)CCCC(=O)O [5S,15S-diHETE] | 26.54 ± 3.89 | 26.99 ± 7.61 |
| CCCCC/C=C\C[C@@H](O)/C=C/C=C/C=C/[C@@H](O)CCCC(=O)O [6-trans-LTB4] | 5.35 ± 3.63 | 1.67 ± 0.28 |
| CC/C=C\C/C=C\C[C@H](O)/C=C/C=C\C=C\[C@@H](O)C/C=C\CCC(=O)O [7S,14S-diHDHA] | 2.79 ± 0.69 | 2.21 ± 0.78 |
| CCCCC/C=C\C[C@H](O)/C=C/C=C/C=C/[C@@H](O)CCCC(=O)O [12-epi-6-trans-LTB4] | 4.63 ± 2.24 | 1.95 ± 0.33 |
| CC/C=C\C/C=C\CC(=O)\C=C/C=C/C=C/[C@H](O)C/C=C\CCC(=O)O [14-oxo-MaR1] | 2.35 ± 0.86 | 0.32 ± 0.32 |
| CCCCC[C@@H](O)/C=C/C=C\C=C\C=C\[C@@H](O)[C@@H](O)CCCC(=O)O [15R-LXA4] | 1.78 ± 0.54 | 0.76 ± 0.15 |
| CCCCC[C@@H](O)[C@H](O)/C=C/C=C/C=C\C=C\[C@@H](O)CCCC(=O)O [15R-LXB4] | 9.37 ± 1.39 | 5.11 ± 0.60 |
| CC/C=C\C[C@@H](O)/C=C/C=C\C=C\C=C\[C@@H](O)[C@@H](O)C/C=C\CCC(=O)O [17R-RvD1] | 0.27 ± 0.13 | 0.13 ± 0.07 |
| CC/C=C\C[C@@H](O)/C=C/C=C\C[C@@H](O)/C=C/C=C/C=C\[C@@H](O)CCC(=O)O [17R-RvD3] | 0.10 ± 0.07 | 0.07 ± 0.04 |
| O=C(O)CCCC/C=C\C[C@@H](O)/C=C/C=C/C=C\[C@@H](O)CCCC(=O)O [20-COOH-LTB4] | 0.42 ± 0.33 | 0.16 ± 0.03 |
| O=C(O)CCC[C@H](O)\C=C/C=C/C=C/[C@H](O)C/C=C\CCCCCO [20-OH-LTB4] | 42.62 ± 18.36 | 24.47 ± 7.22 |
| O=C(O)CC/C=C\C[C@@H](O)/C=C/C=C/C=C\[C@@H](O)C/C=C\C/C=C\CCO [22-OH-MaR1] | 2.07 ± 1.78 | 2.21 ± 0.95 |
| CCCCC/C=C\C[C@@H](O)/C=C/C=C/C=C\[C@@H](O)CCCC(=O)O [LTB4] | 108.07 ± 50.98 | 52.21 ± 10.73 |
| CCCCC/C=C\C\C=C/C=C/C=C/[C@@H](SC[C@H](NC(=O)CC[C@H](N)C(=O)O)C(=O)NCC(=O)O)[C@@H](O)CCCC(=O)O [LTC4] | 20.10 ± 6.85 | 13.21 ± 4.65 |
| CCCCC/C=C\C\C=C/C=C/C=C/[C@@H](SC[C@H](N)C(=O)NCC(=O)O)[C@@H](O)CCCC(=O)O [LTD4] | 5.65 ± 1.31 | 6.86 ± 1.69 |
| CCCCC/C=C\C\C=C/C=C/C=C/[C@@H](SC[C@H](N)C(=O)O)[C@@H](O)CCCC(=O)O [LTE4] | 87.57 ± 44.40 | 41.48 ± 12.00 |
| CCCCC[C@H](O)/C=C/C=C\C=C\C=C\[C@@H](O)[C@@H](O)CCCC(=O)O [LXA4] | 0.08 ± 0.03 | 0.11 ± 0.03 |
| CCCCC[C@H](O)[C@H](O)/C=C/C=C/C=C\C=C\[C@@H](O)CCCC(=O)O [LXB4] | 0.36 ± 0.23 | 0.17 ± 0.08 |
| CC/C=C\C/C=C\C[C@H](O)[C@@H](/C=C/C=C/C=C\C/C=C\CCC(=O)O)SC[C@H](NC(=O)CC[C@H](N)C(=O)O)C(=O)NCC(=O)O [MCTR1] | 0.00 ± 0.00 | 0.00 ± 0.00 |
| CC/C=C\C/C=C\C[C@H](O)[C@@H](/C=C/C=C/C=C\C/C=C\CCC(=O)O)SC[C@H](N)C(=O)NCC(=O)O [MCTR2] | 0.28 ± 0.19 | 0.97 ± 0.23 |
| CC/C=C\C/C=C\C[C@H](O)[C@@H](/C=C/C=C/C=C\C/C=C\CCC(=O)O)SC[C@H](N)C(=O)O [MCTR3] | 4.71 ± 1.61 | 3.32 ± 0.98 |
| CC/C=C\C/C=C\C[C@H](O)\C=C/C=C/C=C/[C@H](O)C/C=C\CCC(=O)O [MaR1] | 5.83 ± 1.30 | 6.82 ± 1.39 |
| CC/C=C\C/C=C\C[C@H](O)\C=C/C=C/C=C/[C@H](O)CCCCCC(=O)O [MaR1n-3 DPA] | 0.10 ± 0.07 | 0.02 ± 0.02 |
| CC/C=C\C/C=C\C[C@H](O)[C@H](O)/C=C/C=C/C=C\C/C=C\CCC(=O)O [MaR2] | 0.00 ± 0.00 | 0.64 ± 0.38 |
| CC/C=C\C[C@H](O)[C@@H](/C=C/C=C/C=C\C/C=C\C/C=C\CCC(=O)O)SC[C@H](NC(=O)CC[C@H](N)C(=O)O)C(=O)NCC(=O)O [PCTR1] | 0.00 ± 0.00 | 2.25 ± 1.59 |
| CC/C=C\C[C@H](O)[C@@H](/C=C/C=C/C=C\C/C=C\C/C=C\CCC(=O)O)SC[C@H](N)C(=O)NCC(=O)O [PCTR2] | 0.05 ± 0.05 | 0.39 ± 0.14 |

No dose or concentration is given here for some results. A unit is not stated for every read-out.
